Data taken from the supplement of paper PMC3334620.
In all, about 33,000 sequences were measured (“E-score (-0.5 to 0.5)”: median about -0.015, highest 2% from about 0.3 on). The list shows a part of the results.

What follows are sequences tested against T1, Abf1 (UniProt P14164) (assay: PBM E-score (8-mer binding enrichment) (E-score (-0.5 to 0.5)); higher = stronger / more preferred TF binding). Conditions: protein concentration: 200 nM; construct: GST-full length.
T1 sequence: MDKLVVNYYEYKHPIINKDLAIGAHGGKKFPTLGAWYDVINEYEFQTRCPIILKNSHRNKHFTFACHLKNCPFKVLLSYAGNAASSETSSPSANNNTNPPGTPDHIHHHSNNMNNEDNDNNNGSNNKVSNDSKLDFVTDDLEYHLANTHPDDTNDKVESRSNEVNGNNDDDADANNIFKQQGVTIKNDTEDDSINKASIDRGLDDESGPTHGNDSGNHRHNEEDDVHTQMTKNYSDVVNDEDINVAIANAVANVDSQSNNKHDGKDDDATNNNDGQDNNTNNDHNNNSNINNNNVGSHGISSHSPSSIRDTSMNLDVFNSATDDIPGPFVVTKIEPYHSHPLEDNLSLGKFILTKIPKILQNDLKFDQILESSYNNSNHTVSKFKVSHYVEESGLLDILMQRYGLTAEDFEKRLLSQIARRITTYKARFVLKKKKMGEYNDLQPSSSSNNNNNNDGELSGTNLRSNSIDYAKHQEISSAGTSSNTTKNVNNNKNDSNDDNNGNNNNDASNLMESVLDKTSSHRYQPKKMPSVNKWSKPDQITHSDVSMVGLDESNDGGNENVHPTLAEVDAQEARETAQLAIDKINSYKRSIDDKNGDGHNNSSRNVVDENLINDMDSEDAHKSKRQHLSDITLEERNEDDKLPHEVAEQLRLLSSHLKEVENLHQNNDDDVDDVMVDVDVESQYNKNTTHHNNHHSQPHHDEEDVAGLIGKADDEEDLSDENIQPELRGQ
Summary of the method: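 Yeast transcription factors, full-length or as DNA-binding domains, were expressed with a GST tag using PURExpress in vitro transcription/translation. At about 100-200 nM they were applied to universal all-10-mer Agilent arrays, double-stranded by primer extension on fresh or once-stripped slides. Fluorescent anti-GST detected bound protein, and masliner normalised the scans. E-scores for ungapped eight-base words, pooled with reverse complements, came from the Universal PBM Analysis Suite.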

Sequence	PBM E-score
GCTTCGAC	-0.0334
ACGTAGGG	-0.148
AGATGGAA	-0.171
AATTTAGT	0.0496
TGCGGCCA	-0.218
GTGGTTGA	-0.0109
GAGGATCA	-0.0196
CGAGCAGC	-0.0523
CCAAATGG	-0.17
CGGTTCGC	0.0344
AAGGCGTA	-0.158
GCTAACTA	0.127
AACGGCGT	0.227
CGACTTAG	-0.0433
AGTACGAG	0.00494
ACTAACAT	0.137
ACCAAACG	-0.129
CTACTGTC	-0.00861
ACTCCAGT	-0.101
GAGTTTAC	-0.131
GCCCTAAA	-0.113
ACTCTTCG	-0.131
GCCCCTTA	-0.138
ATATTACC	0.122
TGCGCACA	-0.0767

Sequence	PBM E-score
AATTATCG	0.178
TACTAGTA	0.0479
GAGGTCCC	-0.0234
ACATAGGA	-0.146
GCTCTCGA	-0.166
CAGCCGCC	-0.193
ACTAGAGC	0.0446
AATATAGC	-0.0394
AGAAGAAA	0.0739
GCTAGCAA	-0.0152
CGCGGGGC	-0.226
AATCGGGG	-0.185
GAGTTCGA	0.117
AGTTTGTA	0.0486
GAGACCAC	-0.0726
CGATCGGA	-0.164
CCGACTCA	-0.211
CAAGAGTA	0.0333
ATTTGAAG	-0.0409
GACCTACC	-0.222
ATACCAGC	-0.0695
AGGTTGAT	-0.174
CGTATTCA	0.165
ATATCGAC	0.192
CGATTACG	0.0723

7 successive entries from above, quoted:
Sequence	PBM E-score
CGATCGGA	-0.164
CCGACTCA	-0.211
CAAGAGTA	0.0333
ATTTGAAG	-0.0409
GACCTACC	-0.222
ATACCAGC	-0.0695
AGGTTGAT	-0.174

Further records follow.

Sequence	PBM E-score
AGCAGATG	-0.0843
CCATTTCA	-0.056
CGCGACTC	-0.0343
TATAGAGA	-0.0405
CGTGACAC	0.252
AAAGCGGG	-0.107
GCAACGAC	0.0784
CTCATGTA	-0.0922
AATCGAAA	0.126
AGGACCCC	-0.0335
CGGGCCCA	-0.111
CCGATTCA	-0.15
CAACGACC	0.0123
GTGGGAAA	0.0642
ATTAGACC	-0.183
CCGCAAAA	-0.147
CTCACCCA	-0.0983
CCGGGTAC	-0.0694
AACAACTT	0.0669
GCCACGGA	0.0521
CTCCCATC	-0.171
CAGAGACA	-0.226
ACACCTCT	-0.134
ATTAGTAG	0.0439
GACTATCC	0.089

Sequence	PBM E-score
TTATGAAA	0.0001
AGCTCGTC	0.159
GCTGCAAA	0.0471
GAATTAGA	0.0737
ACACTTTG	0.199
ACAACTTC	0.00296
CGGCCTCA	0.11
TAGCGAGA	0.0414
CCGATGCC	-0.218
ATTTGCGG	-0.182
CACTCCGG	0.0589
CAATCCTG	-0.0511
CGCCGGAC	-0.0875
ATGGCTGA	-0.123
AATCGAAG	0.14
AGACCCGA	-0.19
CCGCGTCA	-0.283
AGCCTAGC	-0.159
AACCCTCT	-0.161
TAGCACGA	0.158
ACCTCTTG	-0.183
TGCTACCA	-0.0801
CTACACTC	-0.0175
AACCCGAA	0.0202
CGGGTGGC	-0.0962

Sequence	PBM E-score
AGGCTTTG	-0.262
CCGTGACA	0.363
AGGTCATG	0.159
GTATCTGA	0.0476
GATCTGTA	-0.124
TTAGTCAA	-0.0955
ATGCTCGG	-0.0743
AGGTCAGA	-0.217
AAGTGGAT	-0.167
AAACGTCT	0.123
CGTTGTCA	0.273
CTCCCGGC	-0.0528
ATACTTCC	0.0781
CAACTGTC	0.00892
CCGAGGCC	-0.17
GTCGATGA	0.0873
GCGAGGTA	0.0313
CGATCTGC	-0.042
GAATACTC	-0.0282
ATACGAGA	0.105
ACGTGGGG	0.0297
GACTGGGC	-0.208
CTCTGCTC	-0.244
AGCTTAAT	-0.064
CGTTGAAG	-0.00638

Sequence	PBM E-score
ACAGGGGA	-0.209
AGTCAGCA	0.123
CCTTGTCC	-0.121
TACGTGGA	0.0655
ATACTTGC	0.023
GCGAGTAC	-0.0176
CCTCTAGA	0.0683
ACAAACCA	-0.156
AACGCGCA	0.0126
ACTGCTGA	-0.131
AAATGAAG	-0.0486
CTGAGTAA	-0.214
ATAATAAC	0.159
ACTCCACG	-0.0354
CTAAGCCA	-0.0473
AGAATAAG	0.0705
GCCATCTA	-0.139
CCTGTAGA	-0.139
AGATCAAA	0.0132
ATACCCTG	-0.0709
GGGCCGCA	-0.301
CCGTTAAC	-0.0354
AAAAAATT	0.116
AGTCCCAG	-0.199
ACGAGTAT	0.0202

Sequence	PBM E-score
ACCAAGCT	-0.00876
GGCAATCA	0.013
CATGTTGG	-0.183
CACCAGGG	-0.25
CTCCTTGA	-0.17
AGTTGGAC	-0.0524
CCTATGGA	-0.177
ACGCGTGG	0.0243
CCAGACGC	-0.137
CAACTAAC	0.134
AAACGGAA	0.197
GCGGAGGA	-0.227
CCTGGTGC	-0.106
GGCATTTA	-0.144
CCAGATAA	0.00802
TGCCCAAA	0.0119
AACCTAAC	-0.00756
AAGGTGGG	-0.195
ATAGCGCC	0.0557
CAAGCAGA	-0.0483
CAACCGGC	0.0444
ATTAGCTA	0.142
